Data as given in PMC7887808.
Results are given in words; binding and its absence hold for the method and conditions named. In cells and extracts the contact can be indirect. Some binding calls cover weakened binding; strength is not graded here.

The chains behind the UniProt entries cited, without tags or fusion partners.
UniProt P53396: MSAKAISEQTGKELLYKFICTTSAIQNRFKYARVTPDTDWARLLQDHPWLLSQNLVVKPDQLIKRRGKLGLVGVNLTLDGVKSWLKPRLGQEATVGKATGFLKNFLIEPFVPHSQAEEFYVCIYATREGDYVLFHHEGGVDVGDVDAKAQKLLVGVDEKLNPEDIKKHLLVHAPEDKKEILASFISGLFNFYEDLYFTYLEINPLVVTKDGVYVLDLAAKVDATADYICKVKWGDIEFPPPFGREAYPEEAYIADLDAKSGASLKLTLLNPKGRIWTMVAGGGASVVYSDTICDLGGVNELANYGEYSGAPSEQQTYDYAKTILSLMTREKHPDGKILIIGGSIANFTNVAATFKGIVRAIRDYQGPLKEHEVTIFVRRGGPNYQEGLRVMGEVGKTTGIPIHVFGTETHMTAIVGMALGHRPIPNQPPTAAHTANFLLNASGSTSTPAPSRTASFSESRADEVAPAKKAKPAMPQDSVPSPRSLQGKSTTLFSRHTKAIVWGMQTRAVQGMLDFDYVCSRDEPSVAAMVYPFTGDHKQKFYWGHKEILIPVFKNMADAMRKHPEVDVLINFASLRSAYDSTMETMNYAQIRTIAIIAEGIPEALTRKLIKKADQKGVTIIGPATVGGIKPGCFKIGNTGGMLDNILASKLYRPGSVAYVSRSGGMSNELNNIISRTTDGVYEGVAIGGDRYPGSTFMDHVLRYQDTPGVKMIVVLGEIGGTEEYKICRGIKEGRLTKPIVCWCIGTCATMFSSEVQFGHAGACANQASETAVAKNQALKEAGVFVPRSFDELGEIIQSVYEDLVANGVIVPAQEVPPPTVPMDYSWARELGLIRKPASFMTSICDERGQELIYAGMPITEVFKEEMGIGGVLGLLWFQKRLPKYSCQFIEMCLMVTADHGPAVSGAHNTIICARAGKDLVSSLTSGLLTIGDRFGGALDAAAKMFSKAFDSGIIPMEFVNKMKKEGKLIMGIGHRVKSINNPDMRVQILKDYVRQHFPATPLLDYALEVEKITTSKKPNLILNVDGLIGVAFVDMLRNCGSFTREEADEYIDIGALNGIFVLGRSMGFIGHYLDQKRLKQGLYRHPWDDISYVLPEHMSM

Biological target: T1, ER resident protein 44 (human (endogenous in CNE2)) (UniProt Q9BS26)
T1 sequence: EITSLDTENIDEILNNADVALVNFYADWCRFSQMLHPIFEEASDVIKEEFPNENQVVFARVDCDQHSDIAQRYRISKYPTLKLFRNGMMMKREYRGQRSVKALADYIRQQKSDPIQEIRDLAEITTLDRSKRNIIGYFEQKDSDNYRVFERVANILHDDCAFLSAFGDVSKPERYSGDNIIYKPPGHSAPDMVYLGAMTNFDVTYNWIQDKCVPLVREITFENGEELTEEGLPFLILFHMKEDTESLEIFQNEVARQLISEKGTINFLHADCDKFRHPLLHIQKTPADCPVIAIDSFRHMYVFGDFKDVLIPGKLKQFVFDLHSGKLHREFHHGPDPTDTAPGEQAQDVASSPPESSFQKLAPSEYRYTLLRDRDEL
Assay: co-IP; endogenous proteins in CNE2 cells; Pierce Co-Immunoprecipitation Kit, antibody-coupled resin, 4 °C, overnight; western blot with anti-ERp44 and anti-ACLY

binding: binds
Substance: ATP citrate lyase (from UniProt P53396 1-1101) (enzyme)
